From publication PMC10480186
No constants are given. Whether binding was seen depends on the method and setting. Some entries that bind do so weakly or less than the wild type.

Protein sequences, listed by entry. Tags and fused reporters are not part of them. Lines headed by an entry give the natural chain unless they say otherwise; changes in a name come on top. Chains listed by the source or under a name are the forms on record and can include a tag or linker. Residues count along the entry.
DNAJA2ΔCD (O60884, residues 1-360): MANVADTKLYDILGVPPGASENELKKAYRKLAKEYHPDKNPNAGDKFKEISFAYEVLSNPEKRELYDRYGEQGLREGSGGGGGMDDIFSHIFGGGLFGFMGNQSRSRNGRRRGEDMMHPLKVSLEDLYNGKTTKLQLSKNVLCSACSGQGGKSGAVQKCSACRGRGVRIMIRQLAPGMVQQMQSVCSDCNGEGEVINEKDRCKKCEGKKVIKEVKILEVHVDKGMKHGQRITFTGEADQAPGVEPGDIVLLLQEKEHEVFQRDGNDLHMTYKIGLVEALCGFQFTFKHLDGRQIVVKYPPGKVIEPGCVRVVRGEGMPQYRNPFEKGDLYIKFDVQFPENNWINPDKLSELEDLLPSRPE
DNAJA2ΔZFLR (O60884, form named): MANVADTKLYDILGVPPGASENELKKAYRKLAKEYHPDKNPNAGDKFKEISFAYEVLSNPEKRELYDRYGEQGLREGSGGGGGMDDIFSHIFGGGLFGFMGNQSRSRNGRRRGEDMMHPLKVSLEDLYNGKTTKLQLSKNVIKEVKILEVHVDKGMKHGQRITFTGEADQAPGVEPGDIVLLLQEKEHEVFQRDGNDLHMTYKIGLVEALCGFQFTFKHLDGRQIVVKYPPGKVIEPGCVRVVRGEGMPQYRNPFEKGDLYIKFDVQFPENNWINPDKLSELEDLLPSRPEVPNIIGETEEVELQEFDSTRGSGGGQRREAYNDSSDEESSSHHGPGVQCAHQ
UniProt P11411: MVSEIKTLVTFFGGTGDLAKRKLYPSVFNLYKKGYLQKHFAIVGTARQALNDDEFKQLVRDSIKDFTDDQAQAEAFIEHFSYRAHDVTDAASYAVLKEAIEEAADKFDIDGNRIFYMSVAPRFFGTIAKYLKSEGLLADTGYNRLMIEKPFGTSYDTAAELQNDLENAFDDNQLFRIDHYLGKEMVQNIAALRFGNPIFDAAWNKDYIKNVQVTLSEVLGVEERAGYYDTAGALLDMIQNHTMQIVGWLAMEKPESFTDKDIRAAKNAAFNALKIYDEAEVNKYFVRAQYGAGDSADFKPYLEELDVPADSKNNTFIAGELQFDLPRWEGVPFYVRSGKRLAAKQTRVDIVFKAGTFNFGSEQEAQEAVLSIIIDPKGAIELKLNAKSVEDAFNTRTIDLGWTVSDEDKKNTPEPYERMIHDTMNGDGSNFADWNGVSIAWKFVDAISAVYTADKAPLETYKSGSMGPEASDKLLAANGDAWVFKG
UniProt P25685: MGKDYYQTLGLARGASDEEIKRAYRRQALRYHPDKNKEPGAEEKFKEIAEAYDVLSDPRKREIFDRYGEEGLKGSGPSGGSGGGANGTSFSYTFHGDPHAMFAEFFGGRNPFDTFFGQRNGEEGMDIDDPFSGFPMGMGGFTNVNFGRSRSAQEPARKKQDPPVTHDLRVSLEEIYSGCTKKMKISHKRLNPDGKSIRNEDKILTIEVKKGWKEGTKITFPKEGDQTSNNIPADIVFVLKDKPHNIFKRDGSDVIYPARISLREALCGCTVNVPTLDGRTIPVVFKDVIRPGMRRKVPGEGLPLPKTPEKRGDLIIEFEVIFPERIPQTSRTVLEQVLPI

Legend:
DNAJA2ΔCD (human) = DNAJA2ΔCD (human) (UniProt O60884); assay: negative-stain electron microscopy; samples on carbon-coated grids, 2% uranyl acetate; 15 µM protein; tubular oligomers of dimers; both purified
DNAJA2ΔZFLR (human) = DNAJA2ΔZFLR (human) (UniProt O60884); assay: as above
[1] = molecular target: Glucose-6-phosphate dehydrogenase (G6PDH) from Leuconostoc mesenteroides, aggregated (Leuconostoc mesenteroides) (UniProt P11411); assay: co-sedimentation; 2 µM Hsc70, 1 µM J-domain protein (DNAJB1, DNAJA2ΔCD or DNAJA2wt), 0.4 µM Apg2, 0.4 µM aggregated or native G6PDH; pellets on SDS-PAGE, band intensities; amounts in pellets with native G6PDH subtracted; both purified

With “DNAJA2ΔCD (from UniProt O60884 1-360) (domain or fragment)” the binding (DNAJA2ΔCD (human)) was “binds weakly”.
With DNAJA2ΔZFLR (from UniProt O60884 1-412) the binding (DNAJA2ΔZFLR (human)) was “binds weakly”.
In the case of DNAJB1 (from UniProt P25685 1-340), the binding [1] is reported as “binds”.
